The target of the assay is T1, Mycobacterium smegmatis KGD, full-length (Mycobacterium smegmatis) (UniProt A0R2B1).
T1 sequence: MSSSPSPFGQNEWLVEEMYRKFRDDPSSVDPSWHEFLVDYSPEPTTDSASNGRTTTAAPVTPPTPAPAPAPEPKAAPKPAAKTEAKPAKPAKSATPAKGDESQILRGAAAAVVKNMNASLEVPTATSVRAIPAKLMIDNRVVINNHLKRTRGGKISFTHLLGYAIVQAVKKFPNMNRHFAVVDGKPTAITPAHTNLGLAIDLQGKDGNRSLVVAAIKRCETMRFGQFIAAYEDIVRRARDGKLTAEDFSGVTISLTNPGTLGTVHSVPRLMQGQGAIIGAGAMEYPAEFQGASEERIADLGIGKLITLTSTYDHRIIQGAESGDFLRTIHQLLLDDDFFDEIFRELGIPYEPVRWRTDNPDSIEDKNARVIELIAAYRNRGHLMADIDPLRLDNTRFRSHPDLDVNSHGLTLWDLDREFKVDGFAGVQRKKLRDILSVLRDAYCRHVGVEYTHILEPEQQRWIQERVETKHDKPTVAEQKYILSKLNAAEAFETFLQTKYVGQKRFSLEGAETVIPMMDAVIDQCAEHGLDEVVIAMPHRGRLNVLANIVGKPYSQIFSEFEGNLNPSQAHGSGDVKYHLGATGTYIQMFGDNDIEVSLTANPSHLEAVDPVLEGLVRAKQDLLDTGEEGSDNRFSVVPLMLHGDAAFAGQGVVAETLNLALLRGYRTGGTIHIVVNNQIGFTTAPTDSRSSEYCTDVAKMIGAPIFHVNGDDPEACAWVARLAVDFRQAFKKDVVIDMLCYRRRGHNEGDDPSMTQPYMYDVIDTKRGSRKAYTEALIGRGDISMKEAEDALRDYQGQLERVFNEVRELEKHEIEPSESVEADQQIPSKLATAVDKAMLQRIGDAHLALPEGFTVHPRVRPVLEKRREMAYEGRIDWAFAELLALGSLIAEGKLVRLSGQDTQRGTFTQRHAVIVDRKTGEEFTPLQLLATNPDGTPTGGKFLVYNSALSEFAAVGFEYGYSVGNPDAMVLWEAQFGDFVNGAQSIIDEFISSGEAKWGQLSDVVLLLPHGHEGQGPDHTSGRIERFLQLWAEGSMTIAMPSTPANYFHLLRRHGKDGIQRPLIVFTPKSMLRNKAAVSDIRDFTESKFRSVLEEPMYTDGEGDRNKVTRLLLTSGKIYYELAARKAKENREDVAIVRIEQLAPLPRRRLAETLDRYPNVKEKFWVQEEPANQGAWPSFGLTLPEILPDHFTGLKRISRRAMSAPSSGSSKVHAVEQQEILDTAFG
The assay can be described thus: crystal structure; MsKGD (10 mg/ml, 2 mM ThDP, 5 mM MgCl2) co-crystallised with GarA at 1:1 molar ratio; 0.1 M bicine pH 8.0, 30% PEG550MME, 0.2 M NaCl; 4.6 Å; both purified.

Results are given in words; binding and its absence hold for the method and conditions named. Some entries that bind do so weakly or less than the wild type. Where a sequence is shown, tags or fusion partners need not be part of it.

B1: Mycobacterium smegmatis GarA (protein, UniProt A0QYG2 1-158)
chain: MTDKDSNLGADQSEDVTVETTSVFRADFLNELDAPAAAGTEGAVSGVEGLPSGSALLVVKRGPNAGSRFLLDQPTTSAGRHPDSDIFLDDVTVSRRHAEFRLEGGEFQVVDVGSLNGTYVNREPVDSAVLANGDEVQIGKFRLVFLTGPKSDDSGSNA
With B1, the binding result was “binds”.

These data come from article PMC10415282, “High resolution cryo-EM and crystallographic snapshots of the actinobacterial two-in-one 2-oxoglutarate dehydrogenase” (Nature Communications, 2023).
